Construct, isoform or probe ends are uncertain for at least one entry. At least one verdict was read from the data and is not stated in words by the source. Where a protein sequence is shown, tags need not be part of it.
Target: T1, MaMsvR (Methanosarcina acetivorans C2A) (UniProt Q8TQT2)
T1 sequence (looked up, limits assumed): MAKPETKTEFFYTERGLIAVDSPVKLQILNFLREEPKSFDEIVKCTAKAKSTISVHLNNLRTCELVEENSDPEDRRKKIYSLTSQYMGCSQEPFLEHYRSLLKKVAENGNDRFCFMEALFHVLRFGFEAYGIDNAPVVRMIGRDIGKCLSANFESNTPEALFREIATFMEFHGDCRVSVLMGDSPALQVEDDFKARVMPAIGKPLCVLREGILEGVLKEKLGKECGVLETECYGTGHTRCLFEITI
Experiment: EMSA
Conditions: 5 mM DTT, 1 uM protein, 50 nM DNA; EMSA at room temperature, 10 nM DNA and 200 nM MsvR (50 nM DNA and 1 uM protein for 50 bp oligos), with or without 5 mM DTT; recombinant protein; protein details: N-terminal Strep-tag

## TATTTCAAACATGATTATTCGTAGTCACGCGAACGTTTTATATATTCAAA (double strand) [Ma PmsvR 50 bp]
  binding result: binds

— PMC3729527, “Redox-sensitive DNA binding by homodimeric Methanosarcina acetivorans MsvR is modulated by cysteine residues”
